The target in this assay is P146 adhesin like-protein of M. hyopneumoniae (M. hyopneumoniae (endogenous in strain 168)) (UniProt Q4FE21). Briefly: far-Western, overlay or dot blot; surface (Triton X-114) proteins of M. hyopneumoniae strain 168 resolved by 2-DE and transferred to PVDF; 10 ug/mL factor H in TBST overnight at 4°C; rabbit anti-factor H and HRP anti-rabbit, DAB; reactive spots identified by MALDI-TOF-MS; only the binder purified.

Chains of the proteins cited; added tags and fusions are not shown. Lines headed by an entry give the natural chain unless they say otherwise; changes in a name come on top. Residues count along the entry.
UniProt Q4FE21: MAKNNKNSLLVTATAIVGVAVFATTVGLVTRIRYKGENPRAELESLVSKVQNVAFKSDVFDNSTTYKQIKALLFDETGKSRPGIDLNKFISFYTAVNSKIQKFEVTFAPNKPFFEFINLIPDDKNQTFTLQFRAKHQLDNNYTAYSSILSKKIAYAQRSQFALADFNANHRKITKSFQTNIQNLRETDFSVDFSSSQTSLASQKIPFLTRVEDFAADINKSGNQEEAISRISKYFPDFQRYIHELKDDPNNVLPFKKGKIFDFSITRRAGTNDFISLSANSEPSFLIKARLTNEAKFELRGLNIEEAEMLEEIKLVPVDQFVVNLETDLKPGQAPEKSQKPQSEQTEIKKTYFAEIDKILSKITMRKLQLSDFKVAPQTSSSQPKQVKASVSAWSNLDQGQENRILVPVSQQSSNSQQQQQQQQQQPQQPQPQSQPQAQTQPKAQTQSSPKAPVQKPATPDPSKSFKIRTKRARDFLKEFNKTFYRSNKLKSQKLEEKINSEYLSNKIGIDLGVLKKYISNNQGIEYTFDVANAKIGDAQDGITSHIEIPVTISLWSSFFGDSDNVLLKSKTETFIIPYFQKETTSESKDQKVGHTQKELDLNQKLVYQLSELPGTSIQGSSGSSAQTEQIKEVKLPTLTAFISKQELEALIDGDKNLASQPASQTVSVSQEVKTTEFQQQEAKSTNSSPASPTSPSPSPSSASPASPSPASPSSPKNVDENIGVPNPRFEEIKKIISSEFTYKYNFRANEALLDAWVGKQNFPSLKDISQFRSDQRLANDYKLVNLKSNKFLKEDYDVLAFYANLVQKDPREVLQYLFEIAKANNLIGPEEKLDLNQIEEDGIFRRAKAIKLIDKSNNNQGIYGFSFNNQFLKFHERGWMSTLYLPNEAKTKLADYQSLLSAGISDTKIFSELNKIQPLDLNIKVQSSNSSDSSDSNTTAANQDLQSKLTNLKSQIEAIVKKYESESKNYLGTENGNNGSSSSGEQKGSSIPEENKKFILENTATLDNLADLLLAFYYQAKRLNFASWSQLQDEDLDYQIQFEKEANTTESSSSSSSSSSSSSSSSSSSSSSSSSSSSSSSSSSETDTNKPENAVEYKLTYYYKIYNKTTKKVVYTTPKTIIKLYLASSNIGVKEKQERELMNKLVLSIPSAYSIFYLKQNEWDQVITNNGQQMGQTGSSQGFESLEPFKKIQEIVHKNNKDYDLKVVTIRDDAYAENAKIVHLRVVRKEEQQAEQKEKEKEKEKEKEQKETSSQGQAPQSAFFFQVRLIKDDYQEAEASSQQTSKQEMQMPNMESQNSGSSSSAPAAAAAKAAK
UniProt P08603, residues 19-1231: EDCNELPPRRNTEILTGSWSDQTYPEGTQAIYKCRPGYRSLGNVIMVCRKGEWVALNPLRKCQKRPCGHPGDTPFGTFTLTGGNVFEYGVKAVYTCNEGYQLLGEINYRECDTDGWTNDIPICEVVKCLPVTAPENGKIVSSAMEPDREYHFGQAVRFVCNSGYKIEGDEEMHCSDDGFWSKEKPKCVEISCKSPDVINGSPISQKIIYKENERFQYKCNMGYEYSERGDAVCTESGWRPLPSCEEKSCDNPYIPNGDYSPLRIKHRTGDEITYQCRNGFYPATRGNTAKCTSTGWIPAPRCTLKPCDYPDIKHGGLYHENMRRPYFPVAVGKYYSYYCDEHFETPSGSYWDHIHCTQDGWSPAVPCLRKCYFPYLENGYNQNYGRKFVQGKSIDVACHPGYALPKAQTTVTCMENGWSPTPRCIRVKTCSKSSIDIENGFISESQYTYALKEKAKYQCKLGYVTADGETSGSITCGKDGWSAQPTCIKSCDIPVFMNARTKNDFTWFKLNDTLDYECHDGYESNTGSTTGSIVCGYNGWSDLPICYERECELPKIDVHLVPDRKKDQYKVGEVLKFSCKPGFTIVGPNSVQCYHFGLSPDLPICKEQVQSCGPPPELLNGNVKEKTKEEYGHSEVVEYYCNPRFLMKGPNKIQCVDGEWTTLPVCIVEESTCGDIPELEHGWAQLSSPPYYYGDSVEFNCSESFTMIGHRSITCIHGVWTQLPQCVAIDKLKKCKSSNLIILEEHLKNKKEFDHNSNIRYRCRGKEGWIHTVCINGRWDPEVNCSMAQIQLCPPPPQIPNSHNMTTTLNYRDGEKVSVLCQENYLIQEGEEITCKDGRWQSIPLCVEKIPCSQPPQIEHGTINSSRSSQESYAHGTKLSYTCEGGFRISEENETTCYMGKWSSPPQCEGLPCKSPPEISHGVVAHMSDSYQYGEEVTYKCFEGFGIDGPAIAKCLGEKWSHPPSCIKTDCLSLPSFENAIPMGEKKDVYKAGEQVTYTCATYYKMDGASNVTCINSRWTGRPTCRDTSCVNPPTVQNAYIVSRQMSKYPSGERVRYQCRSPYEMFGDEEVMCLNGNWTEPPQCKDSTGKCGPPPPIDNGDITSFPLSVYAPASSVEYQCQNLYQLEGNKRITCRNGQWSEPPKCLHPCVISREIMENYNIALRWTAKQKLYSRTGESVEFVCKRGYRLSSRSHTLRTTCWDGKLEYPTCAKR

Results are given in words; binding and its absence hold for the method and conditions named. Binding calls can cover weak binding; strength is not graded here.

Consider “human factor H (from UniProt P08603 19-1231)”, for which the binding entry is “binds”.

These data come from publication PMC7549910.
